In patent US20210230295A1:
These are yes or no findings as the source states them, for the method shown. Some results given as binding are weak or reduced against the parent protein; the word gives no strength.

The chains behind the UniProt entries cited, without tags or fusion partners. Residues count along the entry.
UniProt P30530, residues 26-449: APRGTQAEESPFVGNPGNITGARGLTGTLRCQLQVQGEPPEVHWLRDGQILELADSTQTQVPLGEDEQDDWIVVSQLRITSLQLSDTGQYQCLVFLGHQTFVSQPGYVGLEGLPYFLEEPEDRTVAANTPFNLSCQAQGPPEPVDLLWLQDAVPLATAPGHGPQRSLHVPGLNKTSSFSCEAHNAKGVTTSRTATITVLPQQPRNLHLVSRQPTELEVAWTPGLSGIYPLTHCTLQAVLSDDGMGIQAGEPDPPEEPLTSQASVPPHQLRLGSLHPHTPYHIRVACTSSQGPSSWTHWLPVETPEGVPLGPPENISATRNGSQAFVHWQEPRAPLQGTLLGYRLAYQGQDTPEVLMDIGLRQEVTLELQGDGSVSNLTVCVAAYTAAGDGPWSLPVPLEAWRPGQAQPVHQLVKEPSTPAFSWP

Molecular target: AXL (ACRO Biosystems) (UniProt P30530)
Experiment: ELISA, AXL (ACRO Biosystems) coated at 1 ug/ml

binding: binds
B1: C6G12 antibody (Chimeric 6G12) (antibody, human IgG1, kappa, V domains shown)
VH: QVQLKQSGPGLVKPSQSLSLTCSVTGFSISSGYYWNWIRQFPGNKLEWMGYRSYDGSNNYNPSLKNRISITRDTSKNQFFLKLNSVTTEDTATYYCARGWLLHYTMDYWGQGTSVTVSS
VL: ELVMTQSPFSNAVTLGTSASISCRSSRSLLHSNGFTYLYWYLQKPGQSPQLLIYQMSNLASGVPDRFSSSGSGTDFTLRISRVEAEDVGVYYCGQNLELPLTFGAGTKLELKR
